Test results published in PubChem BioAssay AID662 (National Center for Advancing Translational Sciences (NCATS), 2007).
Values joined by “and” are separate entries in the source; they are usually repeats but may differ in a detail not shown here. Equal values may be shown once. This is one part of the list. Further columns of the screen follow, without active or inactive calls. The list favours compounds with an active or inconclusive main result. Words in brackets tell the shape of the fitted curve; partial curves, single points and poor fits give uncertain potencies.

experiment: Cell signaling CRE-BLA (Fsk stim); conditions: CHO CRE-bla reporter (cAMP response element driving beta-lactamase), forskolin EC10, beta-lactamase ratio; measured here: 460 nm blue channel
In short: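 Modulation of forskolin-driven signalling is measured in CHO cells carrying a CRE-controlled beta-lactamase reporter. Cells are stimulated with EC10 NKH 477 in the presence of titrated compound for 3 h at 37 °C, then loaded with CCF4 for 2 h at room temperature.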

Structure (SMILES)	AC50
O=C1CSC(=O)N1CC(O)COc1ccc(Cl)cc1 (configuration not stated)	0.398 µM [rising, partial curve]
CCCCn1c2c(c3ccccc31)CCc1nonc1-2	2 µM [rising, full curve]
CCn1cc(C(=O)OCC(=O)N(C)C2CCS(=O)(=O)C2)c(=O)c2ccc(C)nc21 (configuration not stated)	5.01 µM [rising, full curve, poor fit]
COc1cccc2sc(Nc3nnc(-c4ccccc4Cl)o3)nc12	3.16 µM [rising, partial curve]
Cc1c(Cl)cccc1Nc1nc(N)nc(CSc2ncccn2)n1	10 µM [rising, single point]
Fc1cccc(Cl)c1CSc1nnnn1-c1ccc2c(c1)OCO2	0.316 µM [rising, single point]
CCCS(=O)(=O)N1CCN(C(=O)CCC2CCCC2)CC1	5.01 µM [falling, single point]
COc1ccc(Oc2ncc3nc(C)c(=O)n(-c4ccc(OC)cc4)c3n2)cc1	6.31 µM [rising, partial curve]
CCN(CC)C(=O)COc1ccc2oc(C)c(C(=O)OC)c2c1	10 µM [rising, single point]
CCOc1ccc(N(CC(=O)Nc2ccc(C)c(C)c2)S(=O)(=O)c2c(C)noc2C)cc1	25.1 µM [falling, single point]
O=c1oc2ccccc2c(O)c1/C=N/c1nc(-c2ccc(O)c(O)c2)cs1	2 µM [falling, single point]
Cc1onc(-c2ccccc2)c1C(=O)Nc1ccccc1C#N	12.6 µM [rising, single point]
CCCCn1c(Cl)nc2c1c(=O)n(C)c(=O)n2C	12.6 µM [rising, single point]
Nc1c(C(=O)NC2CCCCC2)nsc1C(=O)OCC(=O)NC1CCCCC1	25.1 µM [rising, single point]
C=CC(=O)OCCOCCOC(=O)C=C	5.01 µM [falling, full curve]
COc1ccc(N2CCN(C(c3cccs3)C(C)NC(=O)c3ccco3)CC2)cc1 (configuration not stated)	25.1 µM [rising, single point]
CCNC(=O)CC1C(=O)N(c2ccccc2)C(=O)N1CCc1ccc(OC)cc1 (configuration not stated)	0.631 µM [falling, full curve]
CCc1c(C(=O)Nc2cc(C)ccc2OC)[nH]c(C)c1C(C)=O	5.01 µM [rising, full curve, poor fit]
CC[C@H](c1ccccc1)c1cc(C(C)(C)C)cc(C(C)(C)C)c1O	3.98 µM [rising, single point]
Cc1cc(C)n(-c2nc3c(c(=O)[nH]c(=O)n3C)n2CC(O)COc2ccccc2)n1 (configuration not stated)	12.6 µM [rising, partial curve]
CNc1nc2c(c(=O)n(C)c(=O)n2C)n1Cc1ccccc1	12.6 µM [rising, single point]
Cc1c(/C(O)=C2/C(=O)C(=O)N(CCN3CCOCC3)C2c2ccco2)cnn1-c1ccccc1 (configuration not stated)	25.1 µM [rising, single point]
O=C(c1ccco1)[C@@H]1[C@@H]2C(=O)N(c3ccccc3)C(=O)[C@@H]2C2c3ccccc3C=CN21 (some centres not stated)	3.98 µM [falling, single point]

Structure (SMILES)	AC50
O=C(CSc1nc2ccccc2c(=O)n1Cc1ccco1)N1CCCCCC1	10 µM [rising, partial curve]
CN1CCN(c2ncc3nc(-c4ccc(Cl)cc4)c(=O)n(CCC#N)c3n2)CC1	2.51 µM [rising, full curve]
O=C(NCc1ccccc1)c1ccc(F)c(S(=O)(=O)N2CCOCC2)c1	0.316 µM [falling, full curve]
COc1cc2c(C(=O)N3CCCc4ccccc43)cn(C)c(=O)c2cc1OC	15.8 µM [rising, partial curve]
CCSc1ncnc2c(C#N)c3n(c12)CCCCC3	10 µM [rising, partial curve]
O=C(c1ccco1)N1CCN(S(=O)(=O)c2ccc3c(c2)CCN3C(=O)C2CCC2)CC1	10 µM [rising, partial curve]
CCN1C(=O)c2ccccc2Sc2ccc(C(=O)NCCN3CCOCC3)cc21	12.6 µM [rising, single point]
O=c1ccsn1Cc1ccccc1	0.0316 µM [falling, full curve, poor fit]
O=c1c2ccccc2nnn1CSc1nc2sc3c(c2c(=O)n1CC1CCCO1)CCC3 (configuration not stated)	6.31 µM [rising, partial curve]
O=C1CCc2cc(S(=O)(=O)N3CCN(c4cccc(C(F)(F)F)c4)CC3)ccc2N1	15.8 µM [falling, partial curve, poor fit]
Cc1cc(-c2ccc(Cl)cc2)n2nc(N)nc2n1	15.8 µM [rising, single point]
O=C1C=C(NCCO)C(=O)c2cnccc21	7.94 µM [falling, partial curve]
CCn1ncc(Br)c1C(=O)Nc1ccc(Cl)cn1	10 µM [rising, partial curve]
COc1cccc(Nc2ncc3nc(-c4cccs4)c(=O)n(C[C@H]4CCCO4)c3n2)c1	10 µM [rising, partial curve]
COc1cc(NC(=O)c2cc3c(C)nc4ccccc4c3o2)cc(OC)c1OC	3.16 µM [rising, partial curve]
CN1CCN(c2ncc3nc(-c4ccc(Cl)cc4)c(=O)n(C4CC4)c3n2)CC1	6.31 µM [rising, partial curve]
CC1Cc2ccccc2N1C(=O)CCS(=O)(=O)c1cccc2nonc12 (configuration not stated)	0.158 µM [falling, full curve, poor fit]
Cc1cccc(-n2ncc3c(N4CCCC4)ncnc32)c1	2 µM [rising, single point]
CCCOc1ccccc1NC(=O)CC1Nc2ccccc2NC1=O (configuration not stated)	25.1 µM [rising, single point]
CC(C)(c1cc(Br)c(O)c(Br)c1)c1cc(Br)c(O)c(Br)c1	7.94 µM [rising, partial curve, poor fit] and 3.98 µM [rising, partial curve]
CCOc1ccc(-c2cc(C(=O)NCCCN3CCN(CC)CC3)c3ccccc3n2)cc1	25.1 µM [rising, single point]
Cc1nc2cnc(Oc3ccccc3)nc2n(C2CC2)c1=O	25.1 µM [rising, single point]
COCCn1c(SCc2ccccc2Cl)nc2c1c(=O)[nH]c(=O)n2C	10 µM [rising, single point]

2 entries drawn at random from the list so far:
Structure (SMILES)	AC50
CCSc1ncnc2c(C#N)c3n(c12)CCCCC3	10 µM [rising, partial curve]
O=C(c1ccco1)N1CCN(S(=O)(=O)c2ccc3c(c2)CCN3C(=O)C2CCC2)CC1	10 µM [rising, partial curve]

Further structures.

Structure (SMILES)	AC50
COc1cc2[nH]c(=S)n(CC3CCCO3)c(=O)c2cc1OC (configuration not stated)	12.6 µM [rising, partial curve]
Cc1ccc2c(c1)N(CCC(=O)NCCCOC(C)C)C(=O)C(C)O2 (configuration not stated)	15.8 µM [rising, partial curve, poor fit]
Cc1cccn2c(=O)c3cc(C(=O)NC(C)C)c(=N)n(Cc4ccncc4)c3nc12	12.6 µM [rising, partial curve]
CCOC(=O)c1c(C)[nH]c(C(=O)Cn2c(=O)oc3ccccc32)c1C	1 µM [falling, single point]
Cc1cc(C(=O)CSc2nc3ccccc3[nH]2)c(C)n1C	10 µM [rising, partial curve]
CSc1nc(N)nc(SCC(=O)c2ccc(C)cc2)c1C#N	10 µM [rising, partial curve]
O=C(OCC(=O)N1CCCC1)c1ccccc1OCc1ccccc1	10 µM [falling, partial curve]
CCC(=O)N1CCN(C(=O)CC)C1c1ccccc1	0.501 µM [falling, full curve, poor fit]
CN(C)c1ccc(C(=O)C(O)c2ccc(C(C)(C)C)cc2)cc1 (configuration not stated)	15.8 µM [rising, partial curve]
Cc1ccc(Cn2nnc3c(=O)[nH]c(C4CCN(S(=O)(=O)c5ccc(F)cc5)CC4)nc32)cc1	10 µM [rising, single point]
CS(=O)(=O)N1CCCC(C(=O)NCc2ccccn2)C1 (configuration not stated)	1 µM [rising, full curve, poor fit]
COCCNc1cc(C)nc2c3c(C)cc(C)nc3nn12	10 µM [rising, partial curve]
CCOC(=O)N1CCC(NC(=O)Cn2ncc3c4ccccc4n(C)c3c2=O)CC1	0.501 µM [falling, full curve]
CCNc1nc(C)c2cc(Br)c(=O)n(CC)c2n1	0.794 µM [rising, full curve]
CCCCCCCCCCCCCCCCOC[C@@H](COCC(F)(F)F)OP(=O)(O)OCO	25.1 µM [falling, partial curve]
CCOc1ccc(-n2c(SCC(=O)Nc3cc(C)on3)nc3c([nH]c4ccccc43)c2=O)cc1	1.26 µM [rising, full curve]
Cc1nn(-c2ccccc2)c2sc(C(=O)N(Cc3ccco3)C(C)C(=O)NC(C)(C)C)cc12 (configuration not stated)	1.58 µM [rising, partial curve]
CCc1cccc2nc3c(c([Si](CC)(CC)CC)c12)Cn1c-3cccc1=O	10 µM [rising, partial curve]
O=S1(=O)c2cccc3cccc(c23)N1Cc1ccc(-c2nnco2)cc1	12.6 µM [rising, single point]
COc1ccc(N2CCN(Cc3nc4c(c(=O)n(C)c(=O)n4C)n3Cc3ccccc3C)CC2)cc1	10 µM [rising, partial curve]
CCOC(=O)c1c(NC(=O)CCC(=O)NCc2ccco2)sc2c1CCCC2	20 µM [rising, single point]

Structural class: the compounds so far containing a furan ring, fused or not
Structure (SMILES)	AC50
CCN(CC)C(=O)COc1ccc2oc(C)c(C(=O)OC)c2c1	10 µM [rising, single point]
COc1ccc(N2CCN(C(c3cccs3)C(C)NC(=O)c3ccco3)CC2)cc1 (configuration not stated)	25.1 µM [rising, single point]
Cc1c(/C(O)=C2/C(=O)C(=O)N(CCN3CCOCC3)C2c2ccco2)cnn1-c1ccccc1 (configuration not stated)	25.1 µM [rising, single point]
O=C(c1ccco1)[C@@H]1[C@@H]2C(=O)N(c3ccccc3)C(=O)[C@@H]2C2c3ccccc3C=CN21 (some centres not stated)	3.98 µM [falling, single point]
O=C(CSc1nc2ccccc2c(=O)n1Cc1ccco1)N1CCCCCC1	10 µM [rising, partial curve]
O=C(c1ccco1)N1CCN(S(=O)(=O)c2ccc3c(c2)CCN3C(=O)C2CCC2)CC1	10 µM [rising, partial curve]
COc1cc(NC(=O)c2cc3c(C)nc4ccccc4c3o2)cc(OC)c1OC	3.16 µM [rising, partial curve]
Cc1nn(-c2ccccc2)c2sc(C(=O)N(Cc3ccco3)C(C)C(=O)NC(C)(C)C)cc12 (configuration not stated)	1.58 µM [rising, partial curve]
CCOC(=O)c1c(NC(=O)CCC(=O)NCc2ccco2)sc2c1CCCC2	20 µM [rising, single point]
